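Phenotypic screen: M. tuberculosis growth, cholesterol and DPPC medium, 4 days; the read-out is not stated. Concentration: 50 µM. Higher reads as more growth inhibition (inferred: compounds with an IC50 in retests scored well above the rest). Size under these conditions: about 69,000 compounds, about 370 of them at 50% or above in at least one test.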

Each number is a percent effect as filed. The controls that fix the scale are not given in the record; negative values are as filed. Compounds were drawn at random from those tested, without regard to their results. Two or more numbers in one place are separate tests of the same structure; such repeats can differ widely.

| # | Compound | Percent Effect |
|---|---|---|
| 1 | `Cc1cnc(N2CCC3(CC2)CCN(c2cncnc2)C3=O)nc1` | -6.299 |
| 2 | `COc1ccc(CC(=O)NCC(O)c2sccc2C)cc1OC` (configuration not stated) | -17.07 |
| 3 | `O=C(NCc1nnc2ccccn12)N1CCOC(c2ccsc2)C1` (configuration not stated) | 17.69 |
| 4 | `COCCCN1CCC(C(=O)c2cc(F)ccc2F)CC1` | -8.799 |
| 5 | `O=c1[nH]nc2c(S(=O)(=O)N3CCCCC3)cccn12` | 0.7369 |
| 6 | `CCc1nc(C2CCCN2C(=O)c2ccc(=O)n(CC)n2)no1` (configuration not stated) | -27.12 |
| 7 | `O=C(O)C(F)(F)F.O=C1CCC2(CCCN(C(=O)Cc3cccnc3)C2)N1` (configuration not stated) | 18.41 |
| 8 | `CCC(=O)N1CCCN(C(=O)C2SCCc3sccc32)CC1` (configuration not stated) | -8.789 |
| 9 | `Cc1nccn1[C@@H]1CC[C@@H](NC(=O)CCOc2ccccc2)[C@H]1O` | -16.62 & 8.259 |
| 10 | `Cc1cnn(CCNCc2nnc(-c3ccc(F)cc3)o2)c1` | 2.308 |
| 11 | `Cc1cc(CC(C)NC(=O)c2n[nH]c3c2CCC3)n[nH]1` (configuration not stated) | 0.3656 |
| 12 | `CCn1ccnc1CN1CCN(CC(O)CN2CCOCC2)CC1` (configuration not stated) | 7.426 |
| 13 | `Cc1cccc(CN2C(=O)CCC23CCN(c2ncc(F)cn2)CC3)n1.O=C(O)C(F)(F)F` | 17.99 |
| 14 | `CN(Cc1ccco1)C(=O)CN1CCCC(Cn2cncn2)C1` (configuration not stated) | 8.904 |
| 15 | `Cc1ccc(C)c(S(=O)(=O)CCN2CCCC2Cn2cncn2)c1` (configuration not stated) | -3.175 |
| 16 | `NC(=O)c1cccc(CC2CCN(C(=O)CCc3cccc(F)c3)C2)c1` (configuration not stated) | 15.97 & 10.82 |
| 17 | `Fc1cccc(-n2nc(C3CC3)nc2CCn2cnnn2)c1` | -13.37 |
| 18 | `CC(CCSc1ccccc1)N1CCN(C(=O)c2cccs2)CC1` (configuration not stated) | -22.64 |
| 19 | `Cc1ccccc1SC1CCN(C(=O)C2CNC(=O)N2)CC1` (configuration not stated) | 1.494 |
| 20 | `COCCC(=O)N1CCC2(COCc3cnc(N(C)C)nc32)C1` (configuration not stated) | -15.74 & 7.471 |
| 21 | `CS(=O)(=O)NCC1CCCN(C(=O)Nc2cccnc2N2CCCC2)C1` (configuration not stated) | -12.44 |
| 22 | `CN(Cc1nncn1C)C(=O)c1cc(COc2ccccc2)[nH]n1` | 10.31 |
| 23 | `Cc1cc(F)cc(S(=O)(=O)Nc2ccn(CCCC#N)n2)c1` | 9.279 |
| 24 | `COc1ccc(Br)c(C(=O)NCC2CCN(C(=O)c3ccoc3)CC2)c1` | -6.279 |
| 25 | `COc1cccc(Nc2nc(-c3ccncc3)nc3c2CNCC3)c1.Cl` | -29.19 |
| 26 | `COc1cccc(CNC(C)c2ccc(-n3ccnc3)cc2)c1O` (configuration not stated) | 11.22 |
| 27 | `O=C(O)C(F)(F)F.[H][C@@]12CCN(Cc3ccccc3)C[C@@]1([H])O[C@@H](C(=O)NCC1CCOCC1)C2` | -7.197 |
| 28 | `O=c1[nH]c2ccccc2cc1CN(Cc1ccccn1)CC1CCCO1` (configuration not stated) | -15.55 |
| 29 | `Cn1cccc1C(=O)N1CCC2(CC1)CCN2S(C)(=O)=O` | -25 |
| 30 | `Cc1n[nH]c(C)c1NC(=O)CCc1cccc(C2CCCN(C)C2)n1` (configuration not stated) | -1.872 |
| 31 | `[H][C@]12CCCC(=O)N[C@@]1(C)CCCCN2C(=O)c1cccc(C)n1` | -9.635 |
| 32 | `CCCOc1ccc(CN)c(OC(F)F)c1` | 11.1 |
| 33 | `O=C(O)C(F)(F)F.[H][C@@]12C[C@H](C(=O)Nc3ccccc3)[C@@]([H])(CN(CCC(C)C)C1)O2` | -13.93 |
| 34 | `Cc1nc(C2CCCN2Cc2nc(C)c(C)o2)no1` (configuration not stated) | -13.63 |
| 35 | `CO[C@H]1CN(S(=O)(=O)c2ccc(F)cc2)C[C@@]12CCCO2` | -36.82 |
| 36 | `CC(=O)N1CCCc2sc(C(=O)NC3CC3)nc21` | 9.042 |
| 37 | `CCc1nc(CN2CCN(C(=O)c3cnccn3)CC2)cs1` | -0.5995 |
| 38 | `CC1CCc2n[nH]c(C(=O)N3CCc4c(nc(N(C)C)[nH]c4=O)C3)c2C1` (configuration not stated) | 4.482 |
| 39 | `COCC(O)CN(C)c1ccnc2ccc(Cl)cc12` (configuration not stated) | -34.98 |
| 40 | `CNC(=O)[C@@H]1C[C@@H](N)CN1Cc1ccc2cccc(OC)c2n1` | -6.46 |
| 41 | `O=C(NC1CC1)C1=CC2(CCN(CCO)CC2)c2ccccc21.O=C(O)C(F)(F)F` | -6.402 |
| 42 | `O=C(CN1CCCC1Cn1cncn1)NCC1(c2ccccc2)CC1` (configuration not stated) | -0.2055 |
| 43 | `[H][C@@]12CCN[C@]1([H])CN(S(=O)(=O)c1cccc(Cl)c1)C2` | 5.89 |
| 44 | `O=C(c1ccc[nH]1)N1CCc2cc(S(=O)(=O)N3CCOCC3)ccc2C1` | -34.99 |
| 45 | `CC(C(=O)NCc1ccnc(N2CCCCCC2)c1)n1cccn1` (configuration not stated) | 3.023 |
| 46 | `Cc1cncc(C2CCCN(C(=O)c3c[nH]c(=O)[nH]c3=O)C2)n1` (configuration not stated) | -2.304 |
| 47 | `Cc1cnc(NC(C)Cc2cccnc2)nc1N(C)C` (configuration not stated) | 49.46 & 16.39 |
| 48 | `Cc1nn(C)cc1CN1CCc2nc3sccc3c(=O)n2CC1` | 3.368 & 4.295 |
| 49 | `CCc1noc(C)c1C(=O)N1CCC(c2[nH]ncc2S(C)(=O)=O)C1` (configuration not stated) | -3.761 |
| 50 | `Cc1ccc(C(=O)N2CCC3(CC2)COCCN(S(C)(=O)=O)C3)cc1C` | 2.278 |
| 51 | `COc1coc(CN2CCCC(CCc3c(F)cccc3F)C2)cc1=O` (configuration not stated) | 49.84 |
| 52 | `CCOc1cc(NC(=O)N2CCOC3(CCC3)C2)ccc1C` | 10.42 |
| 53 | `c1csc(-c2nc(CNCCn3cccn3)cs2)c1` | -3.351 |
| 54 | `O=c1[nH]c(N2CCN(C3CC3)CC2)nc2c1cnn2-c1ccccc1` | -75.66 & -0.5988 |
| 55 | `COc1cccc(CNC(=O)CCOc2ccccc2C)c1` | -35.5 |
| 56 | `O=C(O)C(F)(F)F.[H][C@@]12CCN(c3cnccn3)C[C@]1([H])CN(C(=O)c1ccn(C)n1)C2` | -19.87 |
| 57 | `[H][C@]12CC[C@]([H])(CN(C(=O)c3ccccc3)C1)N(Cc1cc(F)ccc1Cl)C2` | 10.13 & -3.016 |
| 58 | `CN(C)c1cccc(CNCc2ccc(N3CCOCC3)cc2)c1` | -17.78 |

Some entries from above, unchanged:

Compound	Percent Effect
O=c1[nH]c(N2CCN(C3CC3)CC2)nc2c1cnn2-c1ccccc1	-75.66 & -0.5988
[H][C@]12CC[C@]([H])(CN(C(=O)c3ccccc3)C1)N(Cc1cc(F)ccc1Cl)C2	10.13 & -3.016
CN(Cc1ccco1)C(=O)CN1CCCC(Cn2cncn2)C1 (configuration not stated)	8.904
COCC(O)CN(C)c1ccnc2ccc(Cl)cc12 (configuration not stated)	-34.98

From ChEMBL document CHEMBL3988442, “University of Dundee, Small-Polar-MMV Screening Library” (2021).